Test results as given in patent publication US20260008757A1, “N-(3-(AMINOMETHYL)-PHENYL)-5-(4-PHENYL)-5-(TRIFLUOROMETHYL)-4,5-DIHYDROISOXAZOL-3-AMINE DERIVATIVES AND SIMILAR COMPOUNDS AS PESTICIDES” (BASF SE, priority 2022, published 2026).
Where two headings read alike, the source gives them in different places. Some results were stated once for a whole list of compounds, not compound by compound.

Assays:
Assay type in all cases: in vivo
[1] = test system: Myzus persicae; assay: Green Peach Aphid (Myzus persicae), mixed life stages, systemic artificial diet test; conditions: 800 ppm; aphid mortality after 3 days
Text: For evaluating control of Green Peach Aphid through systemic means the test unit consisted of 96-well-microtiter plates containing liquid artificial diet under an artificial membrane. The compounds were formulated using a solution containing 75% v/v water and 25% v/v DMSO. Different concentrations of formulated compounds were pipetted into the aphid diet, using a custom-built pipette, at two replications. After application, 5-8 adult aphids were placed on the artificial membrane inside the microtiter plate wells. The aphids were then allowed to suck on the treated aphid diet and incubated at about 23±1° C. and about 50±5% relative humidity for 3 days. Aphid mortality and fecundity was then visually assessed.

[2] = test system: Aedes aegypti; conditions: larval mortality after 2 days
[3] = test system: Anthonomus grandis; assay: Boll weevil (Anthonomus grandis) egg and larval mortality, microtiter plate diet test; conditions: 800 ppm; egg and larval mortality after 5 days
Method: For evaluating control of boll weevil, the test unit consisted of 96-well-microtiter plates containing an insect diet and 5-10 A. grandis eggs.
The compounds were formulated using a solution containing 75% v/v water and 25% v/v DMSO. Different concentrations of formulated compounds were sprayed onto the insect diet at 5 μl, using a custom-built micro atomizer, at two replications.
After application, microtiter plates were incubated at about 25±1° C. and about 75±5% relative humidity for 5 days. Egg and larval mortality were then visually assessed.

Compound | mortality in comparison with untreated controls [1] | mortality in comparison with untreated controls ([2]; 2500 ppm) | mortality in comparison with untreated controls [3] | mortality in comparison with untreated controls ([2]; 800 ppm)
O=C(NCc1cc(NC2=NOC(c3cc(Cl)cc(Cl)c3)(C(F)(F)F)C2)ccc1F)C1CCCO1 (stereo not drawn) [I-5] | at least 75% | at least 75% |  | 
O=C(NCc1cc(NC2=NOC(c3cc(Cl)cc(Cl)c3)(C(F)(F)F)C2)ccc1F)c1ncon1 (stereo not drawn) [I-7] |  | at least 75% | at least 75% | 
O=C(CN1CCCC1=O)NCc1cc(NC2=NOC(c3ccc(F)c(Cl)c3)(C(F)(F)F)C2)ccc1Cl (stereo not drawn) [I-31] | at least 75% |  |  | at least 75%
O=C(Cn1cncn1)NCc1cc(NC2=NOC(c3ccc(F)c(Cl)c3)(C(F)(F)F)C2)ccc1Cl (stereo not drawn) [I-40] |  |  |  | at least 75%
CCOC(=O)N(C1=NOC(c2cc(Cl)c(F)c(Cl)c2)(C(F)(F)F)C1)c1ccc(F)c(CNC(=O)C2CC2)c1 (stereo not drawn) [I-42] |  | at least 75% |  | at least 75%
O=C(NCc1cc(NC2=NOC(c3cc(Cl)cc(Cl)c3)(C(F)(F)Cl)C2)ccc1F)C1CC1 (stereo not drawn) [I-43] |  |  |  | at least 75%
O=C(Cc1ccsc1)NCc1cc(NC2=NOC(c3ccc(F)c(Cl)c3)(C(F)(F)F)C2)ccc1Cl (stereo not drawn) [I-44] |  |  |  | at least 75%
O=C(NCc1cc(NC2=NOC(c3ccc(F)c(Cl)c3)(C(F)(F)F)C2)ccc1Cl)C1CSC1 (stereo not drawn) [I-45] |  |  |  | at least 75%
CS(=O)(=O)N1CC(C(=O)NCc2cc(NC3=NOC(c4ccc(F)c(Cl)c4)(C(F)(F)F)C3)ccc2Cl)C1 (stereo not drawn) [I-46] |  |  |  | at least 75%
CS(=O)(=O)NCC(=O)NCc1cc(NC2=NOC(c3ccc(F)c(Cl)c3)(C(F)(F)F)C2)ccc1Cl (stereo not drawn) [I-47] |  |  |  | at least 75%
O=C(NCc1cc(NC2=NOC(c3ccc(F)c(Cl)c3)(C(F)(F)F)C2)ccc1Cl)C1CC1(F)F (stereo not drawn) [I-48] |  |  |  | at least 75%
O=C(CC1CCS(=O)(=O)C1)NCc1cc(NC2=NOC(c3ccc(F)c(Cl)c3)(C(F)(F)F)C2)ccc1Cl (stereo not drawn) [I-49] | at least 75% |  | at least 75% | at least 75%
CCC(=O)NCc1cc(NC2=NOC(c3ccc(F)c(Cl)c3)(C(F)(F)F)C2)ccc1Cl (stereo not drawn) [I-50] |  |  |  | at least 75%
N#CCC(=O)NCc1cc(NC2=NOC(c3ccc(F)c(Cl)c3)(C(F)(F)F)C2)ccc1Cl (stereo not drawn) [I-51] |  |  |  | at least 75%
O=C(CC1CCCO1)NCc1cc(NC2=NOC(c3ccc(F)c(Cl)c3)(C(F)(F)F)C2)ccc1Cl (stereo not drawn) [I-52] | at least 75% |  | at least 75% | at least 75%
O=C(NCc1cc(NC2=NOC(c3ccc(F)c(Cl)c3)(C(F)(F)F)C2)ccc1Cl)C1CC1(Cl)Cl (stereo not drawn) [I-53] |  |  |  | at least 75%
O=C(NCc1cc(NC2=NOC(c3ccc(F)c(Cl)c3)(C(F)(F)F)C2)ccc1Cl)C1CS(=O)(=O)C1 (stereo not drawn) [I-54] |  |  |  | at least 75%
N#CCCC(=O)NCc1cc(NC2=NOC(c3ccc(F)c(Cl)c3)(C(F)(F)F)C2)ccc1Cl (stereo not drawn) [I-55] |  |  |  | at least 75%
O=CNCc1cc(NC2=NOC(c3ccc(F)c(Cl)c3)(C(F)(F)F)C2)ccc1Cl (stereo not drawn) [I-58] | at least 75% |  | at least 75% | at least 75%
CC(=O)NCc1cc(NC2=NOC(c3ccc(F)c(Cl)c3)(C(F)(F)F)C2)ccc1Cl (stereo not drawn) [I-59] |  |  |  | at least 75%

Compound | mortality in comparison with untreated controls [1] | mortality in comparison with untreated controls ([2]; 2500 ppm) | mortality in comparison with untreated controls [3] | mortality in comparison with untreated controls ([2]; 800 ppm)
O=C(NCc1cc(NC2=NOC(c3ccc(F)c(SC(F)(F)F)c3)(C(F)(F)F)C2)ccc1Cl)C1CC1 (stereo not drawn) [I-60] |  |  |  | at least 75%
CC(=O)NCc1cc(NC2=NOC(c3ccc(F)c(Cl)c3)(C(Cl)Cl)C2)ccc1Cl (stereo not drawn) [I-61] | at least 75% |  | at least 75% | 
O=C(NCc1cc(NC2=NOC(c3ccc(F)c(Cl)c3)(C(Cl)Cl)C2)ccc1Cl)C1CC1 (stereo not drawn) [I-62] |  |  |  | at least 75%
CCC(=O)NCc1cc(NC2=NOC(c3ccc(F)c(Cl)c3)(C(Cl)Cl)C2)ccc1Cl (stereo not drawn) [I-63] | at least 75% |  | at least 75% | at least 75%
CC(=O)NCc1cc(NC2=NOC(c3ccc(Cl)c(Cl)c3)(C(Cl)Cl)C2)ccc1Cl (stereo not drawn) [I-65] | at least 75% |  | at least 75% | at least 75%
CCC(=O)NCc1cc(NC2=NOC(c3ccc(Cl)c(Cl)c3)(C(Cl)Cl)C2)ccc1Cl (stereo not drawn) [I-66] |  |  |  | at least 75%
COc1ccc(NC2=NOC(c3ccc(F)c(Cl)c3)(C(Cl)Cl)C2)cc1CNC(=O)C1CC1 (stereo not drawn) [I-67] | at least 75% |  |  | 
COc1ccc(NC2=NOC(c3ccc(F)c(Cl)c3)(C(Cl)Cl)C2)cc1CNC(C)=O (stereo not drawn) [I-68] | at least 75% |  |  | at least 75%
CCC(=O)NCc1cc(NC2=NOC(c3ccc(F)c(Cl)c3)(C(Cl)Cl)C2)ccc1OC (stereo not drawn) [I-69] | at least 75% |  | at least 75% | at least 75%
CCN(C1=NOC(c2ccc(F)c(Cl)c2)(C(F)(F)Cl)C1)c1ccc(Cl)c(CNC(=O)C2CC2)c1 (stereo not drawn) [I-70] |  |  |  | at least 75%
CCN(C1=NOC(c2ccc(F)c(Cl)c2)(C(F)(F)Cl)C1)c1ccc(Cl)c(CNC(C)=O)c1 (stereo not drawn) [I-71] | at least 75% |  | at least 75% | at least 75%
CCC(=O)NCc1cc(N(CC)C2=NOC(c3ccc(F)c(Cl)c3)(C(F)(F)Cl)C2)ccc1Cl (stereo not drawn) [I-72] |  |  |  | at least 75%
CCC(=O)NCc1cc(NC2=NOC(c3cc(Cl)cc(Cl)c3)(C(F)(F)Cl)C2)ccc1Cl (stereo not drawn) [I-73] |  | at least 75% |  | 
CC(=O)NCc1cc(NC2=NOC(c3cc(Cl)cc(Cl)c3)(C(F)(F)Cl)C2)ccc1Cl (stereo not drawn) [I-74] |  | at least 75% |  | 
CCN(C1=NOC(c2ccc(F)c(Cl)c2)(C(Cl)Cl)C1)c1ccc(Cl)c(CNC(C)=O)c1 (stereo not drawn) [I-75] |  |  | at least 75% | at least 75%
CCC(=O)NCc1cc(N(CC)C2=NOC(c3ccc(F)c(Cl)c3)(C(Cl)Cl)C2)ccc1Cl (stereo not drawn) [I-76] |  |  | at least 75% | at least 75%
CCN(C1=NOC(c2ccc(F)c(Cl)c2)(C(Cl)Cl)C1)c1ccc(OC)c(CNC(C)=O)c1 (stereo not drawn) [I-77] | at least 75% |  |  | at least 75%
O=C(NCc1cc(NC2=NOC(c3cc(Cl)cc(Cl)c3)(C(F)(F)Cl)C2)ccc1Cl)C1CC1 (stereo not drawn) [I-78] |  | at least 75% |  | 
CCC(=O)NCc1cc(NC2=NOC(c3cc(Cl)cc(Cl)c3)(C(Cl)Cl)C2)ccc1Cl (stereo not drawn) [I-79] |  | at least 75% |  | 
CC(=O)NCc1cc(NC2=NOC(c3cc(Cl)cc(Cl)c3)(C(Cl)Cl)C2)ccc1Cl (stereo not drawn) [I-80] |  | at least 75% |  | 
